Experimental data published in paper PMC11774319.
These are yes or no findings as the source states them, for the method shown.

The chains behind the UniProt entries cited, without tags or fusion partners. Where a name states a change or a piece, a line headed by the entry shows the natural chain unless it says otherwise.
UniProt P62324: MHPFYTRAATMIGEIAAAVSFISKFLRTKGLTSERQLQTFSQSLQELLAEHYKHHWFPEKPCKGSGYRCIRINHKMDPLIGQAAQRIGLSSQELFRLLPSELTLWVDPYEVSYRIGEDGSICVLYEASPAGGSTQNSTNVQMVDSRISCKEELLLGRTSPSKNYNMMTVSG
UniProt Q9UIV1: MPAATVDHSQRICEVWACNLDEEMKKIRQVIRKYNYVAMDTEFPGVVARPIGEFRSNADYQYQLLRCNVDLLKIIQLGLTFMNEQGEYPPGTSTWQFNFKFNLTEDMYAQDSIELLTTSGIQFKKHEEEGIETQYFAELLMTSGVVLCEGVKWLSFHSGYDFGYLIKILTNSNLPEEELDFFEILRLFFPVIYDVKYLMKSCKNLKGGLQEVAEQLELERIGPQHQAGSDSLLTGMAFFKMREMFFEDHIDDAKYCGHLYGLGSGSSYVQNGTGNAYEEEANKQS

Molecular target: BTG1 two-hybrid fusion (UniProt P62324)
Test: two-hybrid

binding: no binding
Substance: AD-CNOT7 E247A,Y260A (from UniProt Q9UIV1 1-285)
